Source: PubChem BioAssay AID651640 (Broad Institute, 2012)
The campaign covered roughly 350,000 compounds. About 6,000 (1.7%) were called active. Inconclusive means that the source gave no clear call. Such entries were picked first, then a sample of the others. Cut-off read from the data, not from the text of the source: active = CPE inhibition above about 20% (passing the limit was not always enough); inconclusive = no clear call, values can overlap the other calls; tested in BHK-21 cells. More than one record can exist for a structure, and the calls need not agree.

Assay: protection of cells from dengue 2 killing – plate reader, single concentration, primary screen (AID 651640);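 note: 0% = median of neutral control wells and 100% = median of positive control wells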
Conditions: DENV2-infected cells, cytopathic effect rescue, at 9.99 µM, hits give high values

| Structure (SMILES) | CPE inhibition |
| --- | --- |
| COc1ccc(NC(=O)Nc2ccc3c(c2)C(=O)N([C@H](C)CO)C[C@@H](C)[C@H](CN(C)C(=O)Cc2ccccc2)OCCCC[C@@H](C)O3)cc1 | active: 30% |
| CC(C)CN1CCNC(=O)C1CC(=O)N(C)CC1CCOCC1 (stereo not drawn) | inconclusive: 31.8% |
| CC(NC(=O)COC(=O)CNC(=O)c1ccc(-c2ccccc2)cc1)c1ccccc1 (stereo not drawn) | inconclusive: 31.6% |
| CC(=O)Nc1ccc(NC(=O)C2Cc3c(-c4cccc(NC(C)=O)c4)ccnc3O2)cc1 (stereo not drawn) | inconclusive: 45.7% |
| COc1ccc(NC(=O)Nc2ccc3c(c2)C(=O)N([C@H](C)CO)C[C@@H](C)[C@H](CN(C)S(=O)(=O)c2ccccc2)OCCCC[C@H](C)O3)cc1 | active: 30.1% |
| C=C1C[C@H](O[C@@H]2O[C@H](CO)[C@@H](O)[C@H](O)[C@H]2O)[C@@H]2[C@H](OC(=O)[C@H]2C)[C@H]2[C@H](C)[C@H](O)C[C@@H]12 | active: 55.5% |
| C=CCNC(=O)[C@@H]1[C@H]2C(=O)O[C@H](c3ccccc3)[C@H](c3ccccc3)N2[C@H](c2ccccc2OCCO)[C@@]12C(=O)N(C(=O)OCCOC)c1ccc(C#CCC(C(=O)OC)C(=O)OC)cc12 | inconclusive: 32.6% |
| COc1ccc(C2=NOC(Cn3nc(C(=O)NCC4CC4)cc3-c3ccccc3)C2)cc1 (stereo not drawn) | inconclusive: 22.4% |
| CCOc1ccc(S(=O)(=O)NCCC(=O)N(C)Cc2cccs2)cc1 | inconclusive: 50% |
| COc1ccc(C#Cc2ccc3c(c2)O[C@@H](CN(C)C(=O)c2ccccn2)[C@@H](C)CN([C@@H](C)CO)S3(=O)=O)cc1 | inconclusive: 30.1% |
| CC(C)CC#Cc1cnc2c(c1)C(=O)N([C@@H](C)CO)C[C@@H](C)[C@@H](CN(C)C(=O)CC1CC1)O2 | inactive: -9.14% |
| COCCCN=CC1=C(O)CC(c2ccccc2)CC1=O (stereo not drawn) | inconclusive: 28% |
| CC(C)NC(=O)Nc1ccc2c(c1)C(=O)N([C@H](C)CO)C[C@H](C)[C@@H](CN(C)C(=O)c1ccccc1)OCCCC[C@H](C)O2 | active: 47.8% |
| O=C(C[C@@H]1CC[C@@H]2[C@H](COC[C@@H](O)CN2C(=O)Nc2cccc(F)c2)O1)NCc1ccccc1F | inconclusive: 22.4% |
| COc1ccc(S(=O)(=O)N2CCC(C(=O)N[C@H](C(=O)N3CCCCCC3)C(C)C)CC2)cc1 | inconclusive: 21.7% |
| COc1ccc(CCNC(=O)CSc2ccc3nnc(CCNC(=O)c4ccccc4)n3n2)cc1OC | inconclusive: 40.3% |
| COc1ccccc1-c1ccc2c(c1)C(C)(Cc1ccc(Cl)c(Cl)c1)C(=O)N2 (stereo not drawn) | inconclusive: 71.8% |
| O=S(=O)(N[C@@H]1CC[C@@H](CCn2cc(-c3cccnc3)nn2)O[C@H]1CO)c1ccccc1 | inactive: 16.7% |
| COc1ccc(-c2oc3ccccc3c2C#Cc2cncn2C)cc1 | active: 70.2% |
| Cc1noc(C)c1S(=O)(=O)N(C)C[C@@H]1OCCCC[C@@H](C)Oc2ccc(NC(=O)Nc3ccc(C(F)(F)F)cc3)cc2C(=O)N([C@H](C)CO)C[C@H]1C | inactive: 3.19% |
| O=C(COC(=O)c1cc(=O)[nH]c2ccccc12)NC1CCCC1 | inactive: -1.42% |
| C/C=C/c1ccc(OCC(=O)OCc2csc(Nc3ccc(C)cc3)n2)c(OC)c1 | inconclusive: 56.3% |
| COCCN1CCCc2nc(-c3ccc(Br)cc3)ccc21 | inconclusive: 35.8% |

Quoted from the results shown for reference:

| Structure (SMILES) | CPE inhibition |
| --- | --- |
| COc1ccc(S(=O)(=O)N2CCC(C(=O)N[C@H](C(=O)N3CCCCCC3)C(C)C)CC2)cc1 | inconclusive: 21.7% |
| COc1ccc(CCNC(=O)CSc2ccc3nnc(CCNC(=O)c4ccccc4)n3n2)cc1OC | inconclusive: 40.3% |
| COc1ccccc1-c1ccc2c(c1)C(C)(Cc1ccc(Cl)c(Cl)c1)C(=O)N2 (stereo not drawn) | inconclusive: 71.8% |
| O=S(=O)(N[C@@H]1CC[C@@H](CCn2cc(-c3cccnc3)nn2)O[C@H]1CO)c1ccccc1 | inactive: 16.7% |
| COc1ccc(-c2oc3ccccc3c2C#Cc2cncn2C)cc1 | active: 70.2% |

(further entries)

| Structure (SMILES) | CPE inhibition |
| --- | --- |
| Cc1cc(C(=O)Nc2cccc3c2O[C@@H](CN(C)Cc2ccc(C(=O)Nc4ccccc4N)cc2)[C@@H](C)CN([C@@H](C)CO)C3=O)n(C)n1 | inactive: 7.33% |
| O=C1COc2ccc(S(=O)(=O)NCc3ccc(Cl)cc3)cc2N1 | inconclusive: 23.7% |
| O=C(Cn1cnc2cc([N+](=O)[O-])ccc2c1=O)Nc1cccc(S(=O)(=O)N2CCCCC2)c1 | inconclusive: 29.3% |
| CCCCCCCNC(=O)CN1N=C(c2ccc(C)cc2)CCC1=O | inconclusive: 28.6% |
| C[C@@H]1CN([C@H](C)CO)C(=O)c2cc(NS(C)(=O)=O)ccc2O[C@@H](C)CCCCO[C@H]1CN(C)C(=O)NC1CCCCC1 | inactive: -3.27% |
| C[C@H]1CCCCO[C@H](CN(C)C(=O)Cc2ccccc2)[C@@H](C)CN([C@@H](C)CO)C(=O)c2cc(NS(=O)(=O)c3ccc(Cl)cc3)ccc2O1 | active: 27.7% |
| CC(=O)N1CCCCN2[C@@H](CO)[C@@H](c3ccc(Br)cc3)[C@@H]2C1 | inconclusive: 26.5% |
| COc1cc(OC)c2ccc(=O)oc2c1C(CC(=O)N1CCOCC1)c1ccc2c(c1)OCO2 (stereo not drawn) | inconclusive: 53.5% |
| Cc1c(NC(=S)NC(=O)c2ccccc2Cl)c(=O)n(-c2ccccc2)n1C | inconclusive: 32.2% |
| COC(=O)[C@]12CCCCC=C1N(Cc1cccc3ccccc13)C(=O)[C@H](CC(=O)NCCC(C)C)C2 | active: 109% |
| Cc1ccccc1CN1C[C@@H]2C[C@@H](c3ccc4nsnc4c3)N3CCC[C@@]23C1=O | inconclusive: 27.6% |
| Cc1cccc(N2C(=O)N3[C@H](c4ccc(F)cc4)[C@@H]4C(=O)N(C5CCCCC5)C(=O)[C@@H]4[C@]3(Cc3ccccc3)C2=O)c1 | inconclusive: 60.6% |
| CCCOc1ccc(-c2c(C(=O)N/N=C/c3ccco3)nnn2-c2nonc2N)cc1 | inconclusive: 33.6% |
| Cc1ccc(NC(=O)CN(C)CC(=O)Nc2ccc3c(c2)OCO3)cc1 | inconclusive: 50.7% |
| COc1ccc(NC(=O)N(C)C[C@H]2Oc3ccc(NC(=O)CCN4CCOCC4)cc3C(=O)N([C@H](C)CO)C[C@@H]2C)cc1 | active: 51.5% |
| COc1ccc(C#Cc2cnc3c(c2)C(=O)N([C@@H](C)CO)C[C@H](C)[C@@H](CN(C)C(C)=O)O3)cc1 | inactive: 2.83% |
| C[C@@H]1CN([C@@H](C)CO)C(=O)Cc2cc(NS(=O)(=O)c3cccs3)ccc2O[C@H]1CN(C)S(=O)(=O)c1ccccc1 | active: 77.8% |
| C[C@H]1CCCCO[C@H](CN(C)C(=O)Cc2ccccc2)[C@@H](C)CN([C@@H](C)CO)C(=O)c2cc(NC(=O)C3CCCCC3)ccc2O1 | inactive: 1.04% |
| CCc1ccc(C(=O)NC(=S)NCc2cccnc2)cc1 | inactive: 6% |
| CNC[C@H]1Oc2ncc(-c3ccc(OC)cc3)cc2C(=O)N([C@H](C)CO)C[C@@H]1C | inconclusive: 39.4% |
| COc1ccc(NC2CCCN(C(=O)c3ccc(OC)o3)C2)cc1 (stereo not drawn) | inconclusive: 59.5% |
| CCOC(=O)[C@]12CCCC=C1N(Cc1ccc(Cl)cc1Cl)C(=O)[C@H](CC(=O)NCc1cccc(C(F)(F)F)c1)C2 | inactive: -9.88% |
| COC(=O)c1ccc2nc(C)cc(Nc3ccc(N(C)C)cc3)c2c1 | inactive: -4.14% |

| Structure (SMILES) | CPE inhibition |
| --- | --- |
| COc1ccc(C2C3C=CCC(c4cccc(-c5ccc(C)cc5)c4)C3C(=O)N2Cc2ccccc2)cc1Cl (stereo not drawn) | inactive: -7.72% |
| Cc1ccccc1-c1ccccc1[C@H]1[C@@H](CO)N(C(=O)c2cccc(F)c2)[C@H]1C#N | inactive: 1.58% |
| ClC(CCN1CCN(Cc2ccccc2)CC1)c1ccccc1 (stereo not drawn) | active: 30.7% |
| N#C[C@H]1[C@@H](c2ccc(C#CC3CCCC3)cc2)[C@H](CO)N1S(=O)(=O)c1ccccc1 | active: 20.9% |
| Cc1ccc2c(C)c(C(=O)N3CCN(c4cnccn4)CC3)oc2c1C | inconclusive: 39.5% |
| Cn1cnc(S(=O)(=O)N[C@H]2CC[C@H](CC(=O)N3CCN(c4ccccc4)CC3)O[C@@H]2CO)c1 | inactive: 0.111% |
| C[C@H](CO)N1C[C@H](C)[C@H](CN(C)C)Oc2cc(C#Cc3ccccc3F)ccc2S1(=O)=O | inactive: -8.31% |
| CCCc1c(-c2cccc(F)c2)ncn1CCc1ccccc1OC | inactive: -2.57% |
| Cc1ccc(S(=O)(=O)Nc2ccc3c(c2)C(=O)N([C@@H](C)CO)C[C@H](C)[C@H](CN(C)C)O3)cc1 | inconclusive: 27.9% |
| CCOc1cc(/C=N/n2cnnc2)ccc1OS(=O)(=O)c1ccc(C)cc1 | inactive: 1.19% |
| CNC(=O)C[C@@H]1CC[C@H]2[C@H](COc3ccc(NC(=O)Nc4ccccc4)cc3C(=O)N2C)O1 | inconclusive: 21.2% |
| CCc1ccc(N2CC(C(=O)OCC(=O)NNC(=O)c3ccccc3)CC2=O)cc1 (stereo not drawn) | inconclusive: 46.5% |
| CCCCN1C[C@H](Cc2ccccc2)[C@@H](CC(=O)Nc2ccccc2)C1=O | active: 55.7% |
| C=CCOc1ccc(CN(C)CC(O)COc2cccc3ccccc23)cc1 (stereo not drawn) | inconclusive: 35.5% |
| O=C(C1CC1)N1CCCC(c2ccc(Cl)cc2)=N1 | inconclusive: 31.6% |
| Cc1cc(C(=O)OCC(=O)Nc2ccccc2C)c(C)o1 | inconclusive: 22.8% |
| CCC(=O)Nc1ccc2c(c1)C(=O)N(C)[C@H]1CC[C@@H](CC(=O)NCCc3ccccc3)O[C@H]1CO2 | inconclusive: 20.2% |
| CC(C)NC(=O)N1Cc2cc(C(=O)NC3CCC3)nc(-c3cccc(-c4cccnc4)c3)c2[C@@H]1CCO | active: 30.1% |
| C[C@H]1CN([C@@H](C)CO)C(=O)Cc2cc(NC(=O)Cn3cnnn3)ccc2O[C@H]1CN(C)S(=O)(=O)c1ccc(Cl)cc1 | inactive: 1.36% |
| COCC(=O)N1[C@H](CO)[C@H](c2ccccc2-c2ccccc2)[C@@H]1C#N | active: 44.6% |
| C[C@H]1CN([C@@H](C)CO)C(=O)c2cc(NC(=O)Nc3ccc(F)cc3)ccc2O[C@@H]1CN(C)C | active: 26.2% |
| Cc1cc(C(=O)Nc2ccc3c(c2)C(=O)N(C)[C@@H]2CC[C@@H](CC(=O)N[C@H](C)c4ccccc4)O[C@@H]2CO3)no1 | inactive: -4.24% |
